Some entries share one result that the patent states for a list of compounds.
System: Glutathione S-Transferase
Experiment: Glutathione S-transferase (GST) activity in tissue cytosol of treated mice, CDNB substrate
Format: in vivo, Female A/J mice
Details: gavage, listed as SDMISC 7
Experimental: The activity of cytosolic was assayed according to the method of Habig et al. using 1-chloro-2,4-dinitrobenzene (CDNB) as the substrate. Habig et al, J. Biol. Chem. 249:7130-7139 (1974). The complete solution contains, in a total volume of 2.0 mL, 0.1 M phosphate buffer, pH 6.5, 5 mM glutathione, 1 mM CDNB, and 20 μL of the cytosol. The reaction was monitored at 340 nm in a Beckman Model DU65 UV-VIS spectrophotometer. Assays were performed at 30° C. Complete assay mixture without the cytosolic enzyme was used as the reference blank. Data as analyzed by the Student's “t” test and P values were obtained in comparison to the control.

[Se]=C=NCc1ccc(CN=C=[Se])[se]1 [(7) SDMISC, selenophenyl-2,5-di-methylene isoselenocyanate]
Ratio Test/con (GST) (liver, dose 0.02 mmol/Kg body weight): greater than 2.3 | Ratio Test/con (GST) (liver, dose 0.04 mmol/Kg body weight): greater than 2.3 | Ratio Test/con (GST) (small intestinal mucosa, dose 0.02 mmol/Kg body weight): greater than 2.2

Source: patent US7855232B2, “Organoselenium compound for cancer chemoprevention” (LKT Laboratories, Inc., priority 2001, dated 2010)
